Values joined by “and” are separate entries in the source; they are usually repeats but may differ in a detail not shown here. Equal values may be shown once. In all, about 210,000 compounds went through this assay and about 5,900 (2.8%) were called active. Inconclusive results (about 5%) are left out. The call rests on the fitted dose curve; in most records, active means well fitted activation curve with a large enough effect; inconclusive means small, poorly fitted or top-dose-only effect; inactive means no such curve, though single readings can be large or run the other way. The list shows a part of the results, in another mix than the full data. Where no call is shown, the source filed none.
Assay: qHTS Assay for Enhancers of SMN2 Splice Variant Expression; further: nearly all actives have a fitted effect of over 55% in size; on activity change, positive = activation: % of control where 0% means no effect
Conditions: HEK293 SMN2-luciferase splicing reporter, luminescence, 30-36 h; activity change, positive = activation: at 46.1 µM (top of the series) unless noted
In short: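 HEK293 cells carry an SMN2 minigene-luciferase reporter in which exon 7 inclusion puts luciferase in frame. Cells were seeded at 2000 cells/well, attached for 10-12 hours, then exposed to compounds for 30-36 hours at 37C before ONE-Glo luminescence.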
Potency means the concentration at half of the fitted maximal effect.

| SMILES | activity change, positive = activation | Potency |
| --- | --- | --- |
| COc1cccc(C(=O)Nc2cc(C)on2)c1OC | 50.5% |  |
| Cc1onc(NC(=O)c2ccc(Cl)cc2Cl)c1Br | 148% |  |
| Cn1cccc1/C=N/NC(=O)Cc1cccc2ccccc12 | inactive: -49.8% |  |
| CCc1nn(CC(=O)N2CCC(C)CC2)c(=O)c2cc3occc3n12 | 24.9% |  |
| c1ccc(-n2ncc3c(NCc4ccco4)ncnc32)cc1 | 37.8% |  |
| O=C(c1cccs1)N(c1ccc(Br)cc1)C1C=CS(=O)(=O)C1 (stereo unspecified) | inactive: 7.55% |  |
| COC(=O)c1ccccc1NC(=O)NCc1c(C)nn(C)c1C | -41.5% |  |
| CCOC(=O)/C=C/C(=O)Nc1cccc([N+](=O)[O-])c1 | -78.2% |  |
| CCC1Oc2ccccc2N(CC(=O)Nc2ccc(OC)cc2OC)C1=O (stereo unspecified) | 19.9% |  |
| O=C(OCn1nnc2ccccc2c1=O)c1ccc2ccccc2n1 | 33.4% |  |
| CCOC(=O)N1CCN(S(=O)(=O)c2ccc(C(=O)NNc3nc4cc(C)cc(C)c4s3)cc2)CC1 | -86.9% |  |
| CC(C)(C)c1ccc(/C=N/NC(=O)Cc2c[nH]c3ccccc23)cc1 | 33.3% |  |
| Cc1cccc(NC(=O)CSc2nnc(CNC(=O)c3cccc(C)c3)n2-c2ccccc2)c1 | inactive: -32.5% |  |
| CCn1cc(C2=NOC(C(=O)Nc3cccc(C(C)=O)c3)C2)c(C)n1 (stereo unspecified) | -41.4% |  |
| CCCc1cc(=O)n2[nH]c(SCc3ccccc3)nc2n1 | 32.3% |  |
| O=C(Nc1nccs1)c1ccc(S(=O)(=O)NCC2CCCCC2)cc1 | inactive: -45.9% |  |
| COc1ccc(C(=O)/C(=C\c2ccco2)N2C=CC=CC2=C(C#N)C#N)cc1 | inactive: -66.7% |  |
| CN(CCCC(=O)Nc1ccncc1)S(=O)(=O)c1ccc(Cl)cc1 | inactive: -34.6% |  |
| COc1ccc(CCNC(=O)Cc2ccc(OCc3ccccc3)c(OC)c2[N+](=O)[O-])cc1OCc1ccccc1 | inactive: -34.4% |  |
| CC(=O)Nc1ccc(S(=O)(=O)N2CCN(c3nc(NC4CCCC4)c4ccccc4n3)CC2)cc1 | -73% |  |
| O=C(/C=C/c1ccc(Cl)cc1Cl)Nc1ccc(CN2CCOCC2)cc1 | inactive: -76.6% |  |
| Cc1ccc(C(=O)Nc2cc3ccccc3oc2=O)cc1 | -50.1% |  |

| SMILES | activity change, positive = activation | Potency |
| --- | --- | --- |
| CCn1c(SCC(=O)N2CCN(c3ccccc3)CC2)nnc1-c1cc2cc(Cl)ccc2o1 | -87.6% |  |
| COc1ccccc1NS(=O)(=O)c1ccc(NC(=O)c2ccncc2)cc1 | inactive: -43.4% |  |
| CCCCNC(=O)/C(C#N)=C/c1cccnc1 |  | active: 5.01 µM |
| N#Cc1c(N)nc(SCc2ccccn2)c(C#N)c1-c1cccs1 | inactive: -47.5% |  |
| CC(C)(C)NC(=O)CSc1nc2ccc(Nc3nc(N4CCOCC4)nc(N4CCOCC4)n3)cc2s1 | inactive: -48.5% |  |
| COc1ccc(Cc2nc(-c3ccc(-n4cccc4)cc3)no2)cc1 | inactive: -33.6% |  |
| O=C(/C=C/c1cccs1)Nc1cccc(NC(=O)/C=C/c2cccs2)n1 |  | active: 7.08 µM |
| CC1CN(C2CCN(S(=O)(=O)Cc3ccccc3)CC2)CC(C)O1 (stereo unspecified) | 50.4% |  |
| C=CCOC(=O)Nc1ccc(Cl)cc1NC(=O)OCC=C | 14.7% |  |
| CCOc1ccccc1N1CCN(C(=O)Nc2cccc(Cl)c2)CC1 | 25.9% |  |
| O=c1[nH]c(=O)n([C@H]2C[C@H](O)[C@@H](CO)O2)cc1Br |  | active: 14.1 µM and active: 10 µM |
| CC/C(=N\NC(=O)c1ccoc1C)c1ccc(C)o1 | 30.1% |  |
| Cn1c(=O)c2c(ncn2CC(=O)N2CCN(c3ccccc3)CC2)n(C)c1=O | 44% |  |
| CC(C)Sc1nnc(NC(=O)c2ccco2)s1 | 202% |  |
| O=C(Nc1cccc2nsnc12)C1CC(=O)N(c2ccccc2)C1 (stereo unspecified) | 59.3% |  |
| O=c1c2ccc([N+](=O)[O-])c3cccc(c32)c2nc3ccccc3n12 | -87.8% |  |
| O=C(NCc1cccs1)c1ccc(CSc2nc3ccncc3n2Cc2ccccc2F)cc1 | 38.7% |  |
| N=c1c(S(=O)(=O)c2ccccc2)cc2c(=O)n3ccccc3nc2n1CC1CCCO1 (stereo unspecified) | 46.6% |  |
| O=[N+]([O-])c1cccc(-c2ccc(C(=S)N3CCOCC3)o2)c1 |  | active: 11.2 µM |
| O=c1oc(Nc2cccc(Cl)c2)nc2ccccc12 |  | active: 11.2 µM |
| Fc1ccc(N=C2NN=C(c3cc(F)ccc3F)CS2)cc1 |  | active: 22.4 µM |
| Cc1oc2ccccc2c1-c1cn2c(n1)SCC2 | 34% |  |

Part of the list above in a different format.
SMILES,"activity change, positive = activation",Potency
CCCCNC(=O)/C(C#N)=C/c1cccnc1,,active: 5.01 µM
N#Cc1c(N)nc(SCc2ccccn2)c(C#N)c1-c1cccs1,inactive: -47.5%,

Additional records.

| SMILES | activity change, positive = activation | Potency |
| --- | --- | --- |
| CCn1c(CNC(=O)Cc2ccc(OC)cc2)nnc1SCC(=O)Nc1nccs1 | 13.3% |  |
| CSc1nnc(-c2ccc(S(=O)(=O)N3CCCC3)cc2)n1C | 57.6% |  |
| CCOC(=O)C(C)Oc1ccc(=O)n(-c2ccccc2)n1 (stereo unspecified) | 27.1% |  |
| Cc1cc(/C=C2\Cc3ccccc3C2=O)c(C)n1-c1ccccc1 |  | active: 4.47 µM |
| O=C(CSc1nc2ccccc2c(=O)n1-c1ccc(F)cc1F)Nc1ccc2c(c1)CCC2 | -28.6% |  |
| Cc1ccc(NS(=O)(=O)c2cc(NC(=O)c3ccc4c(c3)NC(=O)CS4)ccc2C)c(C)c1 | inactive: -42% |  |
| COc1ccccc1N1CCN(C(c2cccs2)C(C)NC(=O)c2cccs2)CC1 (stereo unspecified) | inactive: -48.1% |  |
| COc1ccc(N(C)C(=O)CCS(=O)(=O)c2cccc3nonc23)c(OC)c1 | 49.2% |  |
| CCCn1c(N)c(Sc2ccc(Cl)cc2)c(=O)n(CCC)c1=O | 40.7% |  |
| CCN1CCN(c2ccc(NC(=O)Cc3ccccc3)cc2)CC1 | 64.8% |  |
| CCOc1ccc(-n2c(-c3ccccc3)c[n+]3c2CCC3)cc1 | -75.8% |  |
| COCC(C)n1c(C)cc(C(=O)CSc2ncccn2)c1C (stereo unspecified) |  | active: 11.2 µM |
| CCOC(=O)c1cnc2ccc(OC)cc2c1Nc1ccc(OCc2ccccc2Cl)cc1 | inactive: -33.8% |  |
| COc1ccc(CC(=O)Nc2nc(-c3cc(OC)ccc3OC)cs2)cc1 | inactive: -38.6% |  |
| CC1=CC2=C(OC1N(C)C)c1cccc3cccc(c13)C2=O (stereo unspecified) | 50.2% |  |
| O=C(CSc1ccc(Cl)cc1Cl)N1CCC(c2nc3ccccc3s2)CC1 | -34.9% |  |
| CC(C)Nc1nc(Cl)nc(NN(C)c2nc(N(C)C)nc(N(C)C)n2)n1 | -35.3% |  |
| COC(=O)C1=C(C)N(C)C(C)=C(C(=O)OC)C1c1ccncc1 | 69.4% |  |
| Cc1ccc(-c2csc(=S)n2CC(=O)OCC(=O)NCc2ccco2)cc1 | 33.1% |  |
| CCOC(=O)CSC1=C(C#N)C(c2ccc(C)s2)CC(=O)N1 (stereo unspecified) | inactive: -40.1% |  |
| O=C(c1ccco1)N1CCN(C(=O)c2cnn3c(C(F)(F)F)cc(-c4cccs4)nc23)CC1 | 33.6% |  |
| CCCCOC(=O)Nc1ccc(N2CCCCC2)cc1 |  | active: 11.2 µM |

As a short view, two of the compounds above.

| SMILES | activity change, positive = activation | Potency |
| --- | --- | --- |
| CCOC(=O)c1cnc2ccc(OC)cc2c1Nc1ccc(OCc2ccccc2Cl)cc1 | inactive: -33.8% |  |
| COc1ccc(CC(=O)Nc2nc(-c3cc(OC)ccc3OC)cs2)cc1 | inactive: -38.6% |  |

(more compounds)

| SMILES | activity change, positive = activation | Potency |
| --- | --- | --- |
| COCCn1nnnc1C(c1cc2cccc(C)c2[nH]c1=O)N1CCN(c2ccccc2F)CC1 (stereo unspecified) | 23.7% |  |
| OC[C@H]1O[C@@H](n2cnc3c(Nc4ccccc4)ncnc32)[C@H](O)[C@@H]1O | 46.8% |  |
| COc1ccc(C(=O)Nc2ccc(C)cn2)c(OC)c1 | -84.3% |  |
| Cc1c(NC(=O)CSC2=C(C#N)C(c3ccccc3F)CC(=O)N2)c(=O)n(-c2ccccc2)n1C (stereo unspecified) | 35.2% |  |
| Cc1ccc(S(=O)(=O)N2CCCC2C(=O)n2nc(C)cc2C)cc1 (stereo unspecified) | 112% |  |
| O=C(CSc1nnc(-c2ccco2)o1)NC(=O)Cc1ccccc1 | 45.8% |  |
| CC(C)COc1ccc(C(=O)Nc2ccccc2[N+](=O)[O-])cc1 |  | active: 15.8 µM |
| N#Cc1cc(-c2ccccc2)nnc1Oc1ccccc1 | inactive: -49.1% |  |
| O=C(O)c1ccc(Cn2cc(Cl)cn2)cc1 | 31.9% |  |
| C/C(=N\NC(=O)c1cc(C)[nH]n1)c1cccs1 |  | active: 11.2 µM |
| COc1ccc(C(C)=O)cc1CSc1nnc(Nc2ccc(C)cc2)s1 | inactive: -49.2% |  |
| CCOc1cc(S(=O)(=O)Nc2ccc(Cl)cn2)ccc1F | 38.7% |  |
| O=C(CN1C(=O)CCC1=O)Nc1nc(-c2nc3ccccc3s2)cs1 |  | active: 12.6 µM |
| COc1ccc(S(=O)(=O)NC2CC3CCC2C3)cc1Cl (stereo unspecified) | 39.2% |  |
| O=C(NCCOCc1ccccc1)C(c1ccccc1)c1ccccc1 | inactive: -0.474% |  |
| Cc1ccc(NC(=O)COc2cccnc2[N+](=O)[O-])cc1S(=O)(=O)N1CCCCC1 | -59.5% |  |
| COc1cc(/C=C2\SC(=Nc3ccc(F)cc3)N(c3ccc(F)cc3)C2=O)ccc1OCC(=O)O | inactive: -12.4% |  |
| O=C(NCc1cn2ccccc2n1)c1ccc(Br)o1 | 22% |  |
| O=C(O)c1cccc(OCc2ccccc2Cl)c1 | 23.1% |  |
| Cc1c(Cl)cccc1NC(=O)COC(=O)c1c2c(nc3ccccc13)CCN(Cc1ccccc1)C2 | -40.2% |  |
| O=C1CCCc2oc3c(c21)CCCC3 | inactive: -8.53% |  |
| Cc1cccc(C)c1NC(=O)CCCSc1nnc(-c2ccc(Cl)cc2)n1-c1ccccc1 | inactive: -64.9% |  |

| SMILES | activity change, positive = activation | Potency |
| --- | --- | --- |
| O=C(CCSc1ccccc1)N1CCN(c2ccccc2F)CC1 |  | active: 11.2 µM |
| COc1cc(NC(=O)COC(=O)CNC(=O)c2ccc(C)s2)cc(OC)c1 | 41.3% |  |
| COc1ccc(C)cc1N(CC(=O)O)S(=O)(=O)c1ccc(C)cc1 | 59.2% |  |
| O=C(N/N=C/c1ccccc1OC(=O)c1ccc2c(c1)OCO2)c1ccccc1 | -90% |  |
| CCCC12C(=O)C(C)(C(c3ccccc3)=C1c1ccccc1)C1C(=O)N(c3ccc(C)cc3)C(=O)C12 (stereo unspecified) | -90.5% |  |
| Nn1c(SCC(=O)N2CCOCC2)nnc1-c1ccccc1Cl | 45% |  |
| CN1CCN(C(=O)c2ccccc2-c2nc(-c3ccc(Cl)cc3)no2)CC1 | 43.4% |  |
| O=C(Nc1ccccc1N1CCOCC1)c1cc2c(s1)CCCCC2 | 55.9% |  |
| Fc1ccc(-c2nnc3ccc(N4CCc5ccccc5C4)nn23)cc1 | inactive: -36.5% |  |
| O=C(N/N=C/c1ccccn1)c1ccccc1 |  | active: 11.2 µM |
| COC(=O)c1ccc(C(=O)NC(=S)Nc2nc3c(s2)CC(C)CC3)cc1 (stereo unspecified) |  | active: 15.8 µM |
| Cc1ccc(C(=O)COC(=O)c2ccc(O)cc2)cc1 | 129% |  |
| Cc1cc(C)c(C(=O)/C=C/c2ccc(C(C)C)cc2)c(=O)[nH]1 | inactive: -70.2% |  |
| COC(=O)c1cc2ccccc2oc1=O | 30.6% |  |
| CCC(=O)c1ccc(OCC(=O)NCC2(N3CCCCC3)CCCCC2)cc1 | 173% |  |
| CCOC(=O)C1CCN(c2c(C(=O)c3ccccc3)cnc3ccc(CC)cc23)CC1 | 51.7% |  |
| CCN(CC)c1ccc(CNC23CN4CN(CN(C4)C2)C3)cc1 | -37.5% |  |
| c1ccc2c(Oc3ccc4c(c3)OCO4)nncc2c1 |  | active: 10 µM |
